Measured values reported in patent US20190374627A1, “TARGET PEPTIDES FOR CANCER THERAPY AND DIAGNOSTICS” (priority 2016, published 2019).
Entries after “also recorded” stand apart in the source; their conditions may differ.

Test system: ovarian cancer
Assay: Presence of the phosphopeptide in previously analyzed ovarian cancer samples
Design: key: The presence of phosphopeptides in previously analyzed samples including leukemia, colorectal cancer, melanoma, ovarian cancer, breast cancer, and esophageal cancer is indicated by ✓
Details: not given

| Substance | Ovarian |
| --- | --- |
| 41 (RLLSTDAEAV; (4)...(4) The amino acid at this position is optionally phosphorylated; listed as Homo sapiens) [compound 41] | ✓ |
| 28 (KVASLLHQV; (4)...(4) The amino acid at this position is optionally phosphorylated; listed as Homo sapiens) [compound 28] | ✓ |
| 12 (GLISPVWGA; (4)...(4) The amino acid at this position is optionally phosphorylated; listed as Homo sapiens) [compound 12] | ✓ |
| 32 (RLASLQSEV; (4)...(4) The amino acid at this position is optionally phosphorylated; listed as Homo sapiens) [compound 32] | ✓ |
| 73 (VLFSSPPQM; (5)...(5) The amino acid at this position is optionally phosphorylated; listed as Homo sapiens) [compound 73] | ✓ |
| 17 (KIASEIAQL; (4)...(4) The amino acid at this position is optionally phosphorylated; listed as Homo sapiens) [compound 17] | ✓ |
| 387 (RVDSPSHGL; (4)...(4) The amino acid at this position is optionally phosphorylated; listed as Homo sapiens) [compound 387] | ✓ |
| 63 (SLFSPQNTL; (4)...(4) The amino acid at this position is optionally phosphorylated; listed as Homo sapiens) [compound 63] | ✓ |
| 60 (SISSTPPAV; (5)...(5) The amino acid at this position is optionally phosphorylated; listed as Homo sapiens) [compound 60] | ✓ |
| 68 (SLQSLETSV; (4)...(4) The amino acid at this position is optionally phosphorylated; listed as Homo sapiens) [compound 68] | ✓ |
| 56 (RTYSGPMNKV; (4)...(4) The amino acid at this position is optionally phosphorylated; listed as Homo sapiens) [compound 56] | ✓ |
| 64 (SLFSSEESNL; (4)...(4) The amino acid at this position is optionally phosphorylated; listed as Homo sapiens) [compound 64] | ✓ |
| 4 (ALMGSPQLV; (5)...(5) The amino acid at this position is optionally phosphorylated; listed as Homo sapiens) [compound 4] | ✓ |
| 5 (ALMGSPQLVAA; (5)...(5) The amino acid at this position is optionally phosphorylated; listed as Homo sapiens) [compound 5] | ✓ |
| 47 (RQASLSISV; (4)...(4) The amino acid at this position is optionally phosphorylated; listed as Homo sapiens) [compound 47] | ✓ |
| 69 (SMSSLSREV; (4)...(4) The amino acid at this position is optionally phosphorylated; listed as Homo sapiens) [compound 69] | ✓ |
| 13 (GLLDSPTSI; (5)...(5) The amino acid at this position is optionally phosphorylated; listed as Homo sapiens) [compound 13] | ✓ |
| 42 (RLSDTPPLL; (5)...(5) The amino acid at this position is optionally phosphorylated; listed as Homo sapiens) [compound 42] | ✓ |
| 75 (VLYSPQMAL; (4)...(4) The amino acid at this position is optionally phosphorylated; listed as Homo sapiens) [compound 75] | ✓ |
| 66 (SLHDIQLSL; (8)...(8) The amino acid at this position is optionally phosphorylated; listed as Homo sapiens) [compound 66] | ✓ |
| 61 (SLFGGSVKL; (6)...(6) The amino acid at this position is optionally phosphorylated; listed as Homo sapiens) [compound 61] | ✓ |
| 8 (ELFSSPPAV; (5)...(5) The amino acid at this position is optionally phosphorylated; listed as Homo sapiens) [compound 8] | ✓ |
| 30 (RASSLSITV; (4)...(4) The amino acid at this position is optionally phosphorylated; listed as Homo sapiens) [compound 30] | ✓ |
| 24 (KLMSDVEDV; (4)...(4) The amino acid at this position is optionally phosphorylated; listed as Homo sapiens) [compound 24] | ✓ |
| 77 (YLQSRYYRA; (1)...(1) The amino acid at this position is optionally phosphorylated; listed as Homo sapiens) [compound 77] | ✓ |
| 20 (KLDSPRVTV; (4)...(4) The amino acid at this position is optionally phosphorylated; listed as Homo sapiens) [compound 20] | ✓ |

Test system: HCC tumor tissue, adjacent liver tissue, HepG2 cells
Assay: Identification of MHC class I-bound phosphopeptides by W6/32 immunoprecipitation, IMAC and HPLC-ESI-MS/MS
Design: species or system human
Details: other malignancies on which the MHC-I-pP was also identified

| Substance | Found on other cancers |
| --- | --- |
| RLFsKELRC: TAF13 phosphopeptide, HLA-A*0201 (RLFSKELRC; phosphoserine; (4)...(4) The amino acid at this position is optionally phosphorylated; listed as Homo sapiens) | Ovarian Ca, Melanoma |
| SMTRsPPRV: SRSF8 phosphopeptide, HLA-A*0201 (SMTRSPPRV; phosphoserine; (5)...(5) The amino acid at this position is optionally phosphorylated; listed as Homo sapiens) | Ovarian Ca, |
| RLAsYLDRV: KRT18 phosphopeptide, HLA-A*0201 (RLASYLDRV; phosphoserine; (4)...(4) The amino acid at this position is optionally phosphorylated; listed as Homo sapiens) | CRC |
| KLFPDtPLAL: ILF3 phosphopeptide, HLA-A*0201 (KLFPDTPLAL; phosphothreonine; (6)...(6) The amino acid at this position is optionally phosphorylated; listed as Homo sapiens) | Ovarian Ca, CRC, Melanoma, |
| AVVsPPALHNA: BRD4 phosphopeptide, HLA-A*0201 (AVVSPPALHNA; phosphoserine; (5)...(5) The amino acid at this position is optionally phosphorylated; listed as Homo sapiens) | Ovarian Ca, Hematological Ca. |

Same assay, conditions: presentation of HCC-associated HLA-A*0201-restricted MHC-I-pP per cell

| Substance | Copies/cell |
| --- | --- |
| RLFsKELRC: TAF13 phosphopeptide, HLA-A*0201 (RLFSKELRC; phosphoserine; (4)...(4) The amino acid at this position is optionally phosphorylated; listed as Homo sapiens) | 0.3 Copies/cell |
| SMTRsPPRV: SRSF8 phosphopeptide, HLA-A*0201 (SMTRSPPRV; phosphoserine; (5)...(5) The amino acid at this position is optionally phosphorylated; listed as Homo sapiens) | 14 Copies/cell |
| RLAsYLDRV: KRT18 phosphopeptide, HLA-A*0201 (RLASYLDRV; phosphoserine; (4)...(4) The amino acid at this position is optionally phosphorylated; listed as Homo sapiens) | 0.4 - 1.8 Copies/cell |
| PmVTLsLNL (PMVTLSLNL; phosphoserine; oxidized methionine; (6)...(6) The amino acid at this position is optionally phosphorylated; listed as Homo sapiens) | 6 Copies/cell |
| KLFPDtPLAL: ILF3 phosphopeptide, HLA-A*0201 (KLFPDTPLAL; phosphothreonine; (6)...(6) The amino acid at this position is optionally phosphorylated; listed as Homo sapiens) | 0.1 - 0.3 Copies/cell |
| AVVsPPALHNA: BRD4 phosphopeptide, HLA-A*0201 (AVVSPPALHNA; phosphoserine; (5)...(5) The amino acid at this position is optionally phosphorylated; listed as Homo sapiens) | 0.5 - 0.7 Copies/cell |

Same assay, conditions: sample (HCC tumor T, adjacent liver N, HepG2) on which the phosphopeptide was identified

| Substance | Found on |
| --- | --- |
| SMTRsPPRV: SRSF8 phosphopeptide, HLA-A*0201 (SMTRSPPRV; phosphoserine; (5)...(5) The amino acid at this position is optionally phosphorylated; listed as Homo sapiens) | HepG2 |
| RSYsYPRQK (RSYSYPRQK; phosphoserine; (4)...(4) The amino acid at this position is optionally phosphorylated; listed as Homo sapiens) | LL4857T |
| LLDPSRSYsY: GAREM1 phosphopeptide, HLA-A*01 (LLDPSRSYSY; phosphoserine; (9)...(9) The amino acid at this position is optionally phosphorylated; listed as Homo sapiens) | LL981T |
| TRKtPESFL: EPN1 phosphopeptide, HLA-C*06 (TRKTPESFL; phosphothreonine; (4)...(4) The amino acid at this position is optionally phosphorylated; listed as Homo sapiens) | LL981T |
| KRYsRALYL (KRYSRALYL; phosphoserine; (4)...(4) The amino acid at this position is optionally phosphorylated; listed as Homo sapiens) | LL370T |
| GRsSPPPGY (GRSSPPPGY; phosphoserine; (3)...(3) The amino acid at this position is optionally phosphorylated; listed as Homo sapiens) | LL981T |
| SIDsPQKL: TP53BP1 phosphopeptide, HLA-C*05 (SIDSPQKL; phosphoserine; (4)...(4) The amino acid at this position is optionally phosphorylated; listed as Homo sapiens) | LL4857T |
| RPRsAVLL: AKAP13 phosphopeptide, HLA-B*0702 (RPRSAVLL; phosphoserine; (4)...(4) The amino acid at this position is optionally phosphorylated; listed as Homo sapiens) | LL4857N + T |
| TPRsPPLGLI: MAP3K11 phosphopeptide, HLA-B*0702 (TPRSPPLGLI; phosphoserine; (4)...(4) The amino acid at this position is optionally phosphorylated; listed as Homo sapiens) | LL4857T |
| RRPsYTLGM (RRPSYTLGM; phosphoserine; (4)...(4) The amino acid at this position is optionally phosphorylated; listed as Homo sapiens) | LL370T |
| AVVsPPALHNA: BRD4 phosphopeptide, HLA-A*0201 (AVVSPPALHNA; phosphoserine; (5)...(5) The amino acid at this position is optionally phosphorylated; listed as Homo sapiens) | LL981; also recorded: HepG2 |
